Here are results for one molecule from US7989630B2, “Radiotracers for imaging P-glycoprotein function” (National Institutes of Health Represented by the Secretary …, priority 2008, dated 2011).

Amino acid sequences for entries named in this document (tags omitted).
UniProt P21447, whole entry: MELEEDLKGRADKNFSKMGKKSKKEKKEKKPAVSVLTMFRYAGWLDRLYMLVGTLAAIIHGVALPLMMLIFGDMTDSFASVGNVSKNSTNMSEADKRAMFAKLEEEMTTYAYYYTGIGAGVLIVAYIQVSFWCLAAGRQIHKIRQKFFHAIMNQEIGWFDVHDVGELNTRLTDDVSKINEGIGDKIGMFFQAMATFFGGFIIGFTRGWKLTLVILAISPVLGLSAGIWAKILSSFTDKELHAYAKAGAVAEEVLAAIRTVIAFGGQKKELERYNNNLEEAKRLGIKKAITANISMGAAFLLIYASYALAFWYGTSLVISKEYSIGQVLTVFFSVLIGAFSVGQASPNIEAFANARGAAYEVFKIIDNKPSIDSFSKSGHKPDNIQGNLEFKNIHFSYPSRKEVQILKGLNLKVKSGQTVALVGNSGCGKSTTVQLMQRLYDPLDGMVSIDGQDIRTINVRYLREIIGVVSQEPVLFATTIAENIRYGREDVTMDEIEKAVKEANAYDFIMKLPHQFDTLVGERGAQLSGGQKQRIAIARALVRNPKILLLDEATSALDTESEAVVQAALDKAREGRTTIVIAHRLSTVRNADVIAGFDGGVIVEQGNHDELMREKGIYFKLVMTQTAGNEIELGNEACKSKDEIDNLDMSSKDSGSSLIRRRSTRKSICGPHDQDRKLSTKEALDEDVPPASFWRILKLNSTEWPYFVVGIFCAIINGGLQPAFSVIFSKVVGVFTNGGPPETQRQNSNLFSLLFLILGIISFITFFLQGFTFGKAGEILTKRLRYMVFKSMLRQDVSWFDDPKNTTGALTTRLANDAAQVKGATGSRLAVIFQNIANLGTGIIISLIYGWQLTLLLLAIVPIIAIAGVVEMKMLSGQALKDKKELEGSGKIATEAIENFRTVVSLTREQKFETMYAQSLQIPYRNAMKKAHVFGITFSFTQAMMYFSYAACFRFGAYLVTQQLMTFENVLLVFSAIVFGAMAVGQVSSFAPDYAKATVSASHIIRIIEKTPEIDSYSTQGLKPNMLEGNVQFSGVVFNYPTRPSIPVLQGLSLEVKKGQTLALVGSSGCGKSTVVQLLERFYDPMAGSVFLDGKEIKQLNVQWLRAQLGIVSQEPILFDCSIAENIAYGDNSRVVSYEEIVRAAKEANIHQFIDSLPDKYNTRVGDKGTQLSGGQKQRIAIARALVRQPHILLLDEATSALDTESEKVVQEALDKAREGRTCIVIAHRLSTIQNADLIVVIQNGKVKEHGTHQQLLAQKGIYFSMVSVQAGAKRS

The structures appear in SMILES notation. Counter-ions that a name gives are not always drawn.

The test system of series [1] is P-gp. Put plainly: PET imaging of [^11C]dLop in monkey brain, baseline and P-gp blocked with DCPQ. Conditions: given 30 min after [^11C]dLop to DCPQ-treated monkey (naloxone 5 mg/kg i.v.; loperamide or dLop 1 mg/kg i.v.). The protocol: Scatter and attenuation correction were applied. Images were analyzed with PMOD. Regions of interest were drawn on coronal slices for eight brain regions (frontal cortex, anterior cingulate, temporal cortex, parietal cortex, hippocampus, occipital cortex, putamen and cerebellum). Activity was decay-corrected to the time of injection and expressed as % SUV. […]
Time-radioactivity data were collected for the same eight brain regions as previously described.

The target in series [2] is P-gp (Mus musculus, UniProt P21447). Particulars: WT mice, 30 min after [^11C]loperamide i.v. The source says: The most lipophilic radiometabolite was identified by radio-HPLC co-elution as N-desmethylloperamide (dLop) (data not shown).

With `CN(C)C(=O)C(CCN1CCC(O)(c2ccc(Cl)cc2)CC1)(c1ccccc1)c1ccccc1` [Loperamide, 4-(p-chlorophenyl)-4-hydroxy-N,N-dimethyl-α,α-diphenyl-1-piperidinebutyramide hydrochloride, reference compound], the “effect on washout of radioactivity from brain regions” value in the series with P-gp [1] was “no discernible effect”. Besides, on P-gp [2], the Brain composition is 26%.
